Some entries share one result that the patent states for a list of compounds. At least one structure is not confirmed: it was looked up by name or label, or the drawing left a doubt.
Biological target: T1, human histamine H3 receptor (Homo sapiens, UniProt Q9Y5N1)
T1 construct: expressed in transfected cells; host or cells: CHO K1 cells carrying the pSwitch regulatory plasmid, transfected with pGeneH3, induced with mifepristone; clone 3H3
Experiment: Histamine H3 functional antagonist assay ([35S]GTPγS SPA on membranes)
Assay type: biochemical
Conditions: membranes of CHO K1 cells expressing human histamine H3; histamine 0.3 μM

Protein sequences, listed by entry. Tags and fused reporters are not part of them. Lines headed by an entry give the natural chain unless they say otherwise; changes in a name come on top.
UniProt Q9Y5N1: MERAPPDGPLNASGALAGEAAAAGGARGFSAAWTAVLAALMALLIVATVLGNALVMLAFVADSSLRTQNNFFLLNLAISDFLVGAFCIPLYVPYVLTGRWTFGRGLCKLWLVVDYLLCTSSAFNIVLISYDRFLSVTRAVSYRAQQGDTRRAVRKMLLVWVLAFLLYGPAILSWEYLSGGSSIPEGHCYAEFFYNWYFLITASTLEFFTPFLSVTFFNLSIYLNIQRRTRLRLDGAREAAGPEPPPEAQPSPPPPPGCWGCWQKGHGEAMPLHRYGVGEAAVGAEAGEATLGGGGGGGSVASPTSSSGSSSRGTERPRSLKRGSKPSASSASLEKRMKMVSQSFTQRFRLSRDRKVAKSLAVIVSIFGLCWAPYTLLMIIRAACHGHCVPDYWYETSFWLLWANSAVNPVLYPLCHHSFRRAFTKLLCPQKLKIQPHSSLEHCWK

Antagonism (pKb), > 6.5 pKb:
CNC(=O)c1cnc(C(=O)Nc2ccc3c(c2)CCN(C2CCC2)CC3)cn1 [Example 96, N-(3-Cyclobutyl-2,3,4,5-tetrahydro-1H-3-benzazepin-7-yl)-N′-methyl-2,5-pyrazinedicarboxamide]
O=C(/C=C/c1ccc(F)cc1)Nc1ccc2c(c1)CCN(C1CCC1)CC2.O=C(O)C(F)(F)F [Example 261, (2E)-N-(3-Cyclobutyl-2,3,4,5-tetrahydro-1H-3-benzazepin-7-yl)-3-(4-fluorophenyl)-2-propenamide trifluoroacetate]
Cc1nn(-c2ccc(Cl)c(Cl)c2)c(C)c1C(=O)Nc1ccc2c(c1)CCN(C1CCC1)CC2.O=C(O)C(F)(F)F [Example 265, N-(3-Cyclobutyl-2,3,4,5-tetrahydro-1H-3-benzazepin-7-yl)-1-(3,4-dichlorophenyl)-3,5-dimethyl-1H-pyrazole-4-carboxamide trifluoroacetate]
COc1ccc(/C=C/C(=O)Nc2ccc3c(c2)CCN(C2CCC2)CC3)cc1.O=C(O)C(F)(F)F [Example 258, (2E)-N-(3-Cyclobutyl-2,3,4,5-tetrahydro-1H-3-benzazepin-7-yl)-3-[4-(methyloxy)phenyl]-2-propenamide trifluoroacetate]
O=C(Nc1ccc2c(c1)CCN(C1CCC1)CC2)c1cccc2nccnc12 [Example 48, N-(3-Cyclobutyl-2,3,4,5-tetrahydro-1H-3-benzazepin-7-yl)-5-quinoxaline carboxamide]
O=C(Nc1ccc2c(c1)CCN(C1CCC1)CC2)c1ccoc1 [Example 63, N-(3-Cyclobutyl-2,3,4,5-tetrahydro-1H-3-benzazepin-7-yl)-3-furancarboxamide]
O=C(Nc1ccc2c(c1)CCN(C1CCC1)CC2)c1ccc(-c2cnco2)cc1 [Example 14, N-(3-Cyclobutyl-2,3,4,5-tetrahydro-1H-3-benzazepin-7-yl)-4-(1,3-oxazol-5-yl)benzamide]
O=C(Nc1ccc2c(c1)CCN(C1CCC1)CC2)c1cscn1 [Example 68, N-(3-Cyclobutyl-2,3,4,5-tetrahydro-1H-3-benzazepin-7-yl)-1,3-thiazole-4-carboxamide]
O=C(Nc1ccc2c(c1)CCN(C1CCC1)CC2)c1ccc2[nH]ccc2c1.O=C(O)C(F)(F)F [Example 227, N-(3-Cyclobutyl-2,3,4,5-tetrahydro-1H-3-benzazepin-7-yl)-1H-indole-5-carboxamide trifluoroacetate]
CN(C(=O)c1ccc(-c2cnccn2)cc1)c1ccc2c(c1)CCN(C1CCC1)CC2 [Example 125, N-(3-Cyclobutyl-2,3,4,5-tetrahydro-1H-3-benzazepin-7-yl)-N-methyl-4-(2-pyrazinyl)benzamide]
O=C(Nc1ccc2c(c1)CCN(C1CCC1)CC2)c1cnsn1 [Example 76, N-(3-Cyclobutyl-2,3,4,5-tetrahydro-1H-3-benzazepin-7-yl)-1,2,5-thiadiazole-3-carboxamide]
CNC(=O)c1ccc(Nc2ccc3c(c2)CCN(C2CCC2)CC3)nc1 [Example 7, 6-[(3-Cyclobutyl-2,3,4,5-tetrahydro-1H-3-benzazepin-7-yl)amino]-N-methyl-3-pyridinecarboxamide]
COc1ccc(C(=O)Nc2ccc3c(c2)CCN(C2CCC2)CC3)cc1.O=C(O)C(F)(F)F [Example 242, N-(3-Cyclobutyl-2,3,4,5-tetrahydro-1H-3-benzazepin-7-yl)-4-(methyloxy)benzamide trifluoroacetate]
O=C(Nc1ccc2c(c1)CCN(C1CCC1)CC2)c1n[nH]c2ccccc12.O=C(O)C(F)(F)F [Example 225, N-(3-Cyclobutyl-2,3,4,5-tetrahydro-1H-3-benzazepin-7-yl)-1H-indazole-3-carboxamide trifluoroacetate]
O=C(Nc1ccc2c(c1)CCN(C1CCC1)CC2)N1CCCC1c1ccccc1 (centres unmarked) [Example 161, N-(3-Cyclobutyl-2,3,4,5-tetrahydro-1H-3-benzazepin-7-yl)-2-phenyl-1-pyrrolidinecarboxamide]
O=C(Nc1ccc2c(c1)CCN(C1CCC1)CC2)c1cnc(Oc2ccccc2)cn1 [Example 115, N-(3-Cyclobutyl-2,3,4,5-tetrahydro-1H-3-benzazepin-7-yl)-5-(phenyloxy)-2-pyrazinecarboxamide]
O=C(Nc1ccc2c(c1)CCN(C1CCC1)CC2)c1ccc(-n2cncn2)cc1 [Example 90, N-(3-Cyclobutyl-2,3,4,5-tetrahydro-1H-3-benzazepin-7-yl)-4-(1H-1,2,4-triazol-1-yl)benzamide]
O=C(Nc1ccc2c(c1)CCN(C1CCC1)CC2)c1cc(Cl)cc(Cl)c1.O=C(O)C(F)(F)F [Example 262, 3,5-Dichloro-N-(3-cyclobutyl-2,3,4,5-tetrahydro-1H-3-benzazepin-7-yl)benzamide trifluoroacetate]
Cc1nn(C)c(C)c1C(=O)Nc1ccc2c(c1)CCN(C1CCC1)CC2.O=C(O)C(F)(F)F [Example 221, N-(3-Cyclobutyl-2,3,4,5-tetrahydro-1H-3-benzazepin-7-yl)-1,3,5-trimethyl-1H-pyrazole-4-carboxamide trifluoroacetate]
CS(=O)(=O)c1ccc(C(=O)Nc2ccc3c(c2)CCN(C2CCC2)CC3)cc1.O=C(O)C(F)(F)F [Example 246, N-(3-Cyclobutyl-2,3,4,5-tetrahydro-1H-3-benzazepin-7-yl)-4-(methylsulfonyl)benzamide trifluoroacetate]
O=C(Nc1ccc2c(c1)CCN(C1CCC1)CC2)c1ccc(-n2ccnc2)cn1 [Example 109, N-(3-Cyclobutyl-2,3,4,5-tetrahydro-1H-3-benzazepin-7-yl)-5-(1H-imidazol-1-yl)-2-pyridinecarboxamide]
O=C(Nc1ccc2c(c1)CCN(C1CCC1)CC2)c1ccc(C(F)(F)F)cc1.O=C(O)C(F)(F)F [Example 252, N-(3-Cyclobutyl-2,3,4,5-tetrahydro-1H-3-benzazepin-7-yl)-4-(trifluoromethyl)benzamide trifluoroacetate]
Cc1ccc(C(=O)Nc2ccc3c(c2)CCN(C2CCC2)CC3)cc1 [Example 26, N-(3-Cyclobutyl-2,3,4,5-tetrahydro-1H-3-benzazepin-7-yl)-4-methylbenzamide]
N#Cc1cccc(NC(=O)Nc2ccc3c(c2)CCN(C2CCC2)CC3)c1 [Example 142, N-(3-Cyanophenyl)-N′-(3-cyclobutyl-2,3,4,5-tetrahydro-1H-3-benzazepin-7-yl)urea]
O=C(Nc1ccc2c(c1)CCN(C1CCC1)CC2)c1ccc(-c2ccncn2)cc1 [Example 55, N-(3-Cyclobutyl-2,3,4,5-tetrahydro-1H-3-benzazepin-7-yl)-4-(4-pyrimidinyl)benzamide]
O=C(CC1CCCC1)Nc1ccc2c(c1)CCN(C1CCC1)CC2 [Example 20, N-(3-Cyclobutyl-2,3,4,5-tetrahydro-1H-3-benzazepin-7-yl)-2-cyclopentyl acetamide]

— US20070060566A1, “Benzazepine derivatives as histamine h3 antagonists” (priority 2003, published 2007)
